These are yes or no findings as the source states them, for the method shown. Some entries that bind do so weakly or less than the wild type. Sequences can lack the tags named with a protein.
Biological target: CD30 on CD30-stably expressed NF-κB reporter Ramos-Blue cells (human) (UniProt P28908)
Experiment: flow cytometry on cells; CD30-RB cells with a mixture of antibody ([…]) and CD153-rFc (200 ng/ml), 30 min on ice; bound CD153-rFc detected with anti-rabbit IgG-PE; only the binder purified

Sequences of proteins named here, by UniProt entry; tags and fusion partners are left off. Residues count along the entry.
UniProt P28908, residues 19-595: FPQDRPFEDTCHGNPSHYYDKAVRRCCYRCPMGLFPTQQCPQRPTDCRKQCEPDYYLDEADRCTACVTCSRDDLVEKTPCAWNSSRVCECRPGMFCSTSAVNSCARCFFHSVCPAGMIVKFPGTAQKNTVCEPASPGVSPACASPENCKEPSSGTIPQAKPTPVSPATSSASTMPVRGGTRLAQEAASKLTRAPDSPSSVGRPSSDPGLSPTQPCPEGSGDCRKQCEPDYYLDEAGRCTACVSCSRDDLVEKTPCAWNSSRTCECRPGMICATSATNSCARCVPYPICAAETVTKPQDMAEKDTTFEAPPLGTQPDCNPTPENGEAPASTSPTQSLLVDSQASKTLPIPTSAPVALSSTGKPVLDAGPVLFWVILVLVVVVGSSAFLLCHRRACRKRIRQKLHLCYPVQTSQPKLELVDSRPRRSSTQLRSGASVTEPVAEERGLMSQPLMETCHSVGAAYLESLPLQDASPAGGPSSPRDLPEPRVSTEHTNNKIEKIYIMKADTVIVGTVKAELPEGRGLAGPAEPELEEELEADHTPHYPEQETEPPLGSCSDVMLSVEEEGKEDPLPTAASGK

binding: binds
B1: CD153 fused to rabbit Fc (Fc fusion, UniProt P32971 63-234)
chain: QRTDSIPNSPDNVPLKGGNCSEDLLCILKRAPFKKSWAYLQVAKHLNKTKLSWNKDGILHGVRYQDGNLVIQFPGLYFIICQLQFLVQCPNNSVDLKLELLINKHIKKQALVTVCESGMQTKHVYQNLSQFLLDYLQVNTTISVNVDTFQYIDTSTFPLENVLSIFLYSNSD

Reference: PMC11826918
